For one assay, the target named is T1, GFP-tagged Vps41 (UniProt P49754).
T1 sequence: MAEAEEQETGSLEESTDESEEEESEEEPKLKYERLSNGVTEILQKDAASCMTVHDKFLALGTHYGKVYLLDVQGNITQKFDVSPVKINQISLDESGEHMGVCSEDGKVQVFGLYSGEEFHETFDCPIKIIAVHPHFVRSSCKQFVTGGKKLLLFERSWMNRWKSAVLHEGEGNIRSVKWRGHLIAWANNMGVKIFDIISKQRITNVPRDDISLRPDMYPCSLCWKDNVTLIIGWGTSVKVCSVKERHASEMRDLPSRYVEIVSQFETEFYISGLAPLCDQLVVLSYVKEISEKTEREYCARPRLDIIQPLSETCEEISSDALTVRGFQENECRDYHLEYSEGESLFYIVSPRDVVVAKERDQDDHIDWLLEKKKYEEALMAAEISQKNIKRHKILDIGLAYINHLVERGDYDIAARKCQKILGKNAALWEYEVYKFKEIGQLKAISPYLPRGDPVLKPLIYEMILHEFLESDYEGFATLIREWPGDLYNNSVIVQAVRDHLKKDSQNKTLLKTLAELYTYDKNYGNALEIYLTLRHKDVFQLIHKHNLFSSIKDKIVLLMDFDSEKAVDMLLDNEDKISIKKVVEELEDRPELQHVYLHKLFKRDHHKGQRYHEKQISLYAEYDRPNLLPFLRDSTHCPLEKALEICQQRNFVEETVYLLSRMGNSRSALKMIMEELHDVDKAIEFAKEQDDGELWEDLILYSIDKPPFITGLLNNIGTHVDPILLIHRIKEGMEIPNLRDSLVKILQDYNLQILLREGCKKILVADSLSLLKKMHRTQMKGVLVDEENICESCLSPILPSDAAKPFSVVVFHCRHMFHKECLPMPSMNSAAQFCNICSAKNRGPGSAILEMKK
As to the kind of experiment: co-IP; IP of GFP-tagged subunits from HeLa cells co-expressing HA-VIPAS39 alone (left panel) or HA-VIPAS39 and HA-Vps33B (right panel), blot for HA; lysis buffer 40 mM TRIS pH 7.4, 100 mM NaCl, 0.1% TX-100, 5 mM EDTA; also read after prolonged exposure of the blot.

The target of another assay is T2, GFP-tagged Vps33A (UniProt Q96AX1).
T2 sequence: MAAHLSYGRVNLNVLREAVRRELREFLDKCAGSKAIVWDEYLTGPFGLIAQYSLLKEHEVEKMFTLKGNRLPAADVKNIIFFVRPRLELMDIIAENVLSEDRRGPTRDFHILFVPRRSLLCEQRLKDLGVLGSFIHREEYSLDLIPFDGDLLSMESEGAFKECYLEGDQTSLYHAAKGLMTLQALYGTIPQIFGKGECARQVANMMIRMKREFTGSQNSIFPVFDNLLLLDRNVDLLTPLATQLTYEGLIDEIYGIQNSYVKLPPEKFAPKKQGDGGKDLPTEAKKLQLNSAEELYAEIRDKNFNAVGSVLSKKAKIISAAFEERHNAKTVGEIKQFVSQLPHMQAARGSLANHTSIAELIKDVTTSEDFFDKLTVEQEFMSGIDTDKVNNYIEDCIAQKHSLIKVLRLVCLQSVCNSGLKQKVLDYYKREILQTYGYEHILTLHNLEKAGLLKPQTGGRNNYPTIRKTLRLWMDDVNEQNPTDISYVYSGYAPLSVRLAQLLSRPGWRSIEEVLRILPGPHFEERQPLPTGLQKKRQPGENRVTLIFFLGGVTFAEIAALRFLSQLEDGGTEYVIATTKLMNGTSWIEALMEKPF
Described as above.

Our source for the binding values is article PMC5824891.

No constants are given. Whether binding was seen depends on the method and setting. Binding seen in cells or lysates may run through a third protein. Sequences can lack the tags named with a protein.

B1: HA-Vps33B (protein, UniProt Q9H267 1-617)
chain: MAFPHRPDAPELPDFSMLKRLARDQLIYLLEQLPGKKDLFIEADLMSPLDRIANVSILKQHEVDKLYKVENKPALSSNEQLCFLVRPRIKNMRYIASLVNADKLAGRTRKYKVIFSPQKFYACEMVLEEEGIYGDVSCDEWAFSLLPLDVDLLSMELPEFFRDYFLEGDQRWINTVAQALHLLSTLYGPFPNCYGIGRCAKMAYELWRNLEEEEDGETKGRRPEIGHIFLLDRDVDFVTALCSQVVYEGLVDDTFRIKCGSVDFGPEVTSSDKSLKVLLNAEDKVFNEIRNEHFSNVFGFLSQKARNLQAQYDRRRGMDIKQMKNFVSQELKGLKQEHRLLSLHIGACESIMKKKTKQDFQELIKTEHALLEGFNIRESTSYIEEHIDRQVSPIESLRLMCLLSITENGLIPKDYRSLKTQYLQSYGPEHLLTFSNLRRAGLLTEQAPGDTLTAVESKVSKLVTDKAAGKITDAFSSLAKRSNFRAISKKLNLIPRVDGEYDLKVPRDMAYVFGGAYVPLSCRIIEQVLERRSWQGLDEVVRLLNCSDFAFTDMTKEDKASSESLRLILVVFLGGCTFSEISALRFLGREKGYRFIFLTTAVTNSARLMEAMSEVKA
For the molecule B1, the binding entry with GFP-tagged Vps41 and with GFP-tagged Vps33A was “no binding” each time.

B2: HA-VIPAS39 (protein, UniProt Q9H9C1 1-493)
chain: MNRTKGDEEEYWNSSKFKAFTFDDEDDELSQLKESKRAVNSLRDFVDDDDDDDLERVSWSGEPVGSISWSIRETAGNSGSTHEGREQLKSRNSFSSYAQLPKPTSTYSLSSFFRGRTRPGSFQSLSDALSDTPAKSYAPELGRPKGEYRDYSNDWSPSDTVRRLRKGKVCSLERFRSLQDKLQLLEEAVSMHDGNVITAVLIFLKRTLSKEILFRELEVRQVALRHLIHFLKEIGDQKLLLDLFRFLDRTEELALSHYREHLNIQDPDKRKEFLKTCVGLPFSAEDSAHIQDHYTLLERQIIIEANDRHLESAGQTEIFRKHPRKASILNMPLVTTLFYSCFYHYTEAEGTFSSPVNLKKTFKIPDKQYVLTALAARAKLRAWNDVDALFTTKNWLGYTKKRAPIGFHRVVEILHKNNAPVQILQEYVNLVEDVDTKLNLATKFKCHDVVIDTYRDLKDRQQLLAYRSKVDKGSAEEEKIDALLSSSQIRWKN
As to B2, the binding result with GFP-tagged Vps41 and with GFP-tagged Vps33A was “no binding” throughout.
